The source of these data is PMC6855800.

Chains of the proteins cited; added tags and fusions are not shown. Lines headed by an entry give the natural chain unless they say otherwise; changes in a name come on top.
UniProt Q16666: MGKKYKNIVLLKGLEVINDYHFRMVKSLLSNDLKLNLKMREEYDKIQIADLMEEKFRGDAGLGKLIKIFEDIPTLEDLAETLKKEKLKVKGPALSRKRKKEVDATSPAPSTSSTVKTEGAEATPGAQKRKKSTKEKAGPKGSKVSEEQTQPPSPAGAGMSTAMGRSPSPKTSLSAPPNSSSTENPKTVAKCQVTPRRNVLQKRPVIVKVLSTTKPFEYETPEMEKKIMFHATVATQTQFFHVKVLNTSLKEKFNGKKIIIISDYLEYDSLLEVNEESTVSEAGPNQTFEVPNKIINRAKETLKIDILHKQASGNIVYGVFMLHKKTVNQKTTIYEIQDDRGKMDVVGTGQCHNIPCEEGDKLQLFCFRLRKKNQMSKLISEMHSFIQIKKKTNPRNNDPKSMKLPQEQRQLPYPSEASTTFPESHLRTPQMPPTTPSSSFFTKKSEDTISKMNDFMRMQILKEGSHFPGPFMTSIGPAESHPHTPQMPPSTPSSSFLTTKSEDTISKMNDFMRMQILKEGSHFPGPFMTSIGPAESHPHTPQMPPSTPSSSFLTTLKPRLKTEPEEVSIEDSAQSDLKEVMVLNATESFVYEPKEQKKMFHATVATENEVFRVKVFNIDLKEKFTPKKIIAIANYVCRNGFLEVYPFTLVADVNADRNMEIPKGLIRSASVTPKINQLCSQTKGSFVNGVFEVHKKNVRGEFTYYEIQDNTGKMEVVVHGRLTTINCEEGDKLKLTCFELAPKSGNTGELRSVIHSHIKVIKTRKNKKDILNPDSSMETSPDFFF
UniProt Q9H9B1: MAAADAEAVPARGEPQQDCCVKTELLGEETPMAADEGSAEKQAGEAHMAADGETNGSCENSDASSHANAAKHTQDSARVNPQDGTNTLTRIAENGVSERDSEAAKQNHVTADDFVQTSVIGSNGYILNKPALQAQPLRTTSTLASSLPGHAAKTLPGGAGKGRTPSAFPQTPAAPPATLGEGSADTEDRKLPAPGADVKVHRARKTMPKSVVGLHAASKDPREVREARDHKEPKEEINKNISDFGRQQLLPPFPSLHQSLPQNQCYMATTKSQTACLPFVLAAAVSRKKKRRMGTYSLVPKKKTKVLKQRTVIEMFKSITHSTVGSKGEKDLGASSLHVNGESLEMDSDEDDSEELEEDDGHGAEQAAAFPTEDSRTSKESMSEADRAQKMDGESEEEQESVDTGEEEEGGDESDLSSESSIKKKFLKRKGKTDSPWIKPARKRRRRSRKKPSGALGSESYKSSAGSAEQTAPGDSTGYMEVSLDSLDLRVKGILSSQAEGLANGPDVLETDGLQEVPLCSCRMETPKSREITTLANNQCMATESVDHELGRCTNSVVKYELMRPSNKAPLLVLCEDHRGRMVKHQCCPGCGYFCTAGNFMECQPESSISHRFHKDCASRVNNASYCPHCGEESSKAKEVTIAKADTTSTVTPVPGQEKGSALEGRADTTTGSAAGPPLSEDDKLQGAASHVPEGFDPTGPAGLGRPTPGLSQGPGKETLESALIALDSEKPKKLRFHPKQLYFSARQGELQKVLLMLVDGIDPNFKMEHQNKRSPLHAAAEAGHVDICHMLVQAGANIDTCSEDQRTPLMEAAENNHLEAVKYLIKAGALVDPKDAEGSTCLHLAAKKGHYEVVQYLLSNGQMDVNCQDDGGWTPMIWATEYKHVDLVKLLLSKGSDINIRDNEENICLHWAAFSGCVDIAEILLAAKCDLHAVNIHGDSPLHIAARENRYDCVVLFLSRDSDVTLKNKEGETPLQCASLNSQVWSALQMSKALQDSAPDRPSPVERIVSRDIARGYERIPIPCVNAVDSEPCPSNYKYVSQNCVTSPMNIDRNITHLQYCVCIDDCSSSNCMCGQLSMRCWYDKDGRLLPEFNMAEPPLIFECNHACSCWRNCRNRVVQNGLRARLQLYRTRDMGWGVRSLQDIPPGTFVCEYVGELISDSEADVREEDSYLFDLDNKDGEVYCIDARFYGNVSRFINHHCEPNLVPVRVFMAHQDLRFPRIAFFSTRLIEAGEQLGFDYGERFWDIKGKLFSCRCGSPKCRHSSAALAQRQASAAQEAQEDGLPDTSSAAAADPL
UniProt Q9H5I1: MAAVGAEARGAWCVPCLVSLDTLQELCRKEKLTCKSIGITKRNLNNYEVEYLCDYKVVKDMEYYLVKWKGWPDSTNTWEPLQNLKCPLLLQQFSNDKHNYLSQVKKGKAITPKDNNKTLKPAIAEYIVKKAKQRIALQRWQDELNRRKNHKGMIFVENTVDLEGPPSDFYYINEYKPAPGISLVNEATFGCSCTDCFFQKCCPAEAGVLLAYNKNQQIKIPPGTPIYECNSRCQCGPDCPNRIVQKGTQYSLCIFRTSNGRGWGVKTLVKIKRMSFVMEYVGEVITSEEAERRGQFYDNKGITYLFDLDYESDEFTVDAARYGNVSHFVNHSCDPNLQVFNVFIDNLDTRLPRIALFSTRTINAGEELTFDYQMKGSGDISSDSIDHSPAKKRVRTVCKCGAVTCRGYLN

B1: SETDB2 (enzyme, UniProt Q96T68 1-719)
chain: MGEKNGDAKTFWMELEDDGKVDFIFEQVQNVLQSLKQKIKDGSATNKEYIQAMILVNEATIINSSTSIKGASQKEVNAQSSDPMPVTQKEQENKSNAFPSTSCENSFPEDCTFLTTENKEILSLEDKVVDFREKDSSSNLSYQSHDCSGACLMKMPLNLKGENPLQLPIKCHFQRRHAKTNSHSSALHVSYKTPCGRSLRNVEEVFRYLLETECNFLFTDNFSFNTYVQLARNYPKQKEVVSDVDISNGVESVPISFCNEIDSRKLPQFKYRKTVWPRAYNLTNFSSMFTDSCDCSEGCIDITKCACLQLTARNAKTSPLSSDKITTGYKYKRLQRQIPTGIYECSLLCKCNRQLCQNRVVQHGPQVRLQVFKTEQKGWGVRCLDDIDRGTFVCIYSGRLLSRANTEKSYGIDENGRDENTMKNIFSKKRKLEVACSDCEVEVLPLGLETHPRTAKTEKCPPKFSNNPKELTVETKYDNISRIQYHSVIRDPESKTAIFQHNGKKMEFVSSESVTPEDNDGFKPPREHLNSKTKGAQKDSSSNHVDEFEDNLLIESDVIDITKYREETPPRSRCNQATTLDNQNIKKAIEVQIQKPQEGRSTACQRQQVFCDEELLSETKNTSSDSLTKFNKGNVFLLDATKEGNVGRFLNHSCCPNLLVQNVFVETHNRNFPLVAFFTNRYVKARTELTWDYGYEAGTVPEKEIFCQCGVNKCRKKIL
B2: Suppressor of variegation 3–9 homolog 1 (SUV39H1) (enzyme, UniProt O43463 1-412)
chain: MAENLKGCSVCCKSSWNQLQDLCRLAKLSCPALGISKRNLYDFEVEYLCDYKKIREQEYYLVKWRGYPDSESTWEPRQNLKCVRILKQFHKDLERELLRRHHRSKTPRHLDPSLANYLVQKAKQRRALRRWEQELNAKRSHLGRITVENEVDLDGPPRAFVYINEYRVGEGITLNQVAVGCECQDCLWAPTGGCCPGASLHKFAYNDQGQVRLRAGLPIYECNSRCRCGYDCPNRVVQKGIRYDLCIFRTDDGRGWGVRTLEKIRKNSFVMEYVGEIITSEEAERRGQIYDRQGATYLFDLDYVEDVYTVDAAYYGNISHFVNHSCDPNLQVYNVFIDNLDERLPRIAFFATRTIRAGEELTFDYNMQVDPVDMESTRMDSNFGLAGLPGSPKKRVRIECKCGTESCRKYLF

Results are given in words; binding and its absence hold for the method and conditions named. In cells and extracts the contact can be indirect. A result given as binding can be weak or reduced; the word gives no strength.

This assay addresses His-tagged full-length IFI16 (C-terminal His/DDK tagged IFI16) (human) (UniProt Q16666). Briefly: pull-down; His-tag pulldown of His/DDK tagged IFI16 from transfected 293T cells (which lack IFI16) on HisPur cobalt resin (ProFound Pull-Down PolyHis kit); control plasmid as control; western blot of elutions.
With “RIZ1 (from UniProt Q13029-1 1-1718) (enzyme)”, the binding entry is recorded as “no binding”. As for “G9a-like protein (GLP) (from UniProt Q9H9B1 1-1298) (enzyme)”, the entry is “binds”; as for “SUV39H2 (from UniProt Q9H5I1 1-410) (enzyme)”, “no binding”. Regarding B1, the binding entry is on record as “no binding”.

Regarding B2, the binding entry is “binds”.
